{"source": "PubChem BioAssay AID1259308, NCATS, 2017", "aim": "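Candidate targets for better recombinant protein yield in mammalian cells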 (primary screen)", "cell system": "human HEK293 embryonic kidney cells stably expressing firefly luciferase (HEK-CMV-Luc2-Hygro)", "knock-down reagent": "single siRNA against human genes, 0.8 pmol siRNA per well", "timing": "72 h", "measurement": "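Reporter luminescence and viable-cell signal on separate replicate plates, given as percent of non-targeting control and median/MAD z-scores, plus per-cell luciferase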", "direction": "total luciferase, z-score and total luciferase, % of control: higher = more reporter protein produced", "hit rule": "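Active when the median/MAD z-score for overall luciferase is greater than 3; a gene was taken forward for validation with new siRNAs if at least two of its three siRNAs passed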", "meaning of the calls": "active = raised luciferase; inactive = no rise", "note": "This is a random part of about 59,000 deposited reagents. Over the whole deposit, about 1,510 (2.6%) got an active call. 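Calls use total luciferase alone and ignore viability, so some active siRNAs may act by altering cell number.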 Entries without a mark were called inactive. Reagents against one gene are numbered here. Further read-outs or replicates are left out here. Reagent sequences are not shown."}
{"gene knocked down": "OR51E1", "reagent no.": 1, "total luciferase, z-score": 0.398, "total luciferase, % of control": 89.8}
{"gene knocked down": "OR51E1", "reagent no.": 2, "total luciferase, z-score": -0.256, "total luciferase, % of control": 76.8}
{"gene knocked down": "OR51E1", "reagent no.": 3, "total luciferase, z-score": 1.51, "total luciferase, % of control": 112}
{"gene knocked down": "CEP120", "reagent no.": 1, "total luciferase, z-score": -0.435, "total luciferase, % of control": 73.2}
{"gene knocked down": "CEP120", "reagent no.": 2, "total luciferase, z-score": 0.981, "total luciferase, % of control": 101}
{"gene knocked down": "CEP120", "reagent no.": 3, "total luciferase, z-score": 1.95, "total luciferase, % of control": 121}
{"gene knocked down": "SP7", "reagent no.": 1, "total luciferase, z-score": -0.47, "total luciferase, % of control": 72.5}
{"gene knocked down": "SP7", "reagent no.": 2, "total luciferase, z-score": 1.22, "total luciferase, % of control": 106}
{"gene knocked down": "SP7", "reagent no.": 3, "total luciferase, z-score": 0.534, "total luciferase, % of control": 92.5}
{"gene knocked down": "DUSP4", "reagent no.": 1, "total luciferase, z-score": -1.81, "total luciferase, % of control": 45.9}
{"gene knocked down": "DUSP4", "reagent no.": 2, "total luciferase, z-score": 1.39, "total luciferase, % of control": 109}
{"gene knocked down": "DUSP4", "reagent no.": 3, "total luciferase, z-score": -1.87, "total luciferase, % of control": 44.7}
{"gene knocked down": "RPS25", "reagent no.": 1, "total luciferase, z-score": -0.837, "total luciferase, % of control": 65.2}
{"gene knocked down": "RPS25", "reagent no.": 2, "total luciferase, z-score": -1.42, "total luciferase, % of control": 53.7}
{"gene knocked down": "RPS25", "reagent no.": 3, "total luciferase, z-score": -1.81, "total luciferase, % of control": 45.9}
{"gene knocked down": "C1QC", "reagent no.": 1, "total luciferase, z-score": 0.593, "total luciferase, % of control": 93.7}
{"gene knocked down": "C1QC", "reagent no.": 2, "total luciferase, z-score": -1.35, "total luciferase, % of control": 55}
{"gene knocked down": "C1QC", "reagent no.": 3, "total luciferase, z-score": "5 (active)", "total luciferase, % of control": 181}
{"gene knocked down": "CYTH3", "reagent no.": 1, "total luciferase, z-score": 1.1, "total luciferase, % of control": 104}
{"gene knocked down": "CYTH3", "reagent no.": 2, "total luciferase, z-score": 1.23, "total luciferase, % of control": 106}
{"gene knocked down": "CYTH3", "reagent no.": 3, "total luciferase, z-score": -0.45, "total luciferase, % of control": 72.9}
{"gene knocked down": "PSME4", "reagent no.": 1, "total luciferase, z-score": -1.09, "total luciferase, % of control": 60.1}
{"gene knocked down": "PSME4", "reagent no.": 2, "total luciferase, z-score": 1.52, "total luciferase, % of control": 112}
{"gene knocked down": "PSME4", "reagent no.": 3, "total luciferase, z-score": -0.838, "total luciferase, % of control": 65.2}
{"gene knocked down": "ZDHHC8BP", "reagent no.": 1, "total luciferase, z-score": "3.61 (active)", "total luciferase, % of control": 154}
{"gene knocked down": "ZDHHC8BP", "reagent no.": 2, "total luciferase, z-score": -1.09, "total luciferase, % of control": 60.3}
{"gene knocked down": "ZDHHC8BP", "reagent no.": 3, "total luciferase, z-score": 0.313, "total luciferase, % of control": 88.1}
{"gene knocked down": "MIEN1", "reagent no.": 1, "total luciferase, z-score": 0.244, "total luciferase, % of control": 86.7}
{"gene knocked down": "MIEN1", "reagent no.": 2, "total luciferase, z-score": -0.773, "total luciferase, % of control": 66.5}
{"gene knocked down": "MIEN1", "reagent no.": 3, "total luciferase, z-score": 0.549, "total luciferase, % of control": 92.8}
{"gene knocked down": "IQCK", "reagent no.": 1, "total luciferase, z-score": "3.42 (active)", "total luciferase, % of control": 150}
{"gene knocked down": "IQCK", "reagent no.": 2, "total luciferase, z-score": 0.0627, "total luciferase, % of control": 83.1}
{"gene knocked down": "IQCK", "reagent no.": 3, "total luciferase, z-score": 0.202, "total luciferase, % of control": 85.9}
